# According to paper PMC6555816, “Tau local structure shields an amyloid-forming motif and controls aggregation propensity” (Nature Communications, 2019):
# These are yes or no findings as the source states them, for the method shown.
# B1: upstream N-terminal sequence 295DNIKHV300 (peptide)
# peptide: DNIKHV
# modifications: N-terminal acetylation; C-terminal amidation
# B2: wild-type peptide fragment R1R3 mimicking a 3R splice isoform (peptide)
# peptide: ENLKHQPGGGKVQIVYK
# modifications: N-terminal acetylation; C-terminal amidation
# B3: R1R3 peptide fragment with a corresponding P301L mutation (R1R3-P270L) (peptide)
# peptide: ENLKHQLGGGKVQIVYK
# modifications: N-terminal acetylation; C-terminal amidation
# Legend:
# Experiment in all cases: ThT fluorescence aggregation assay; spontaneous self-assembly of disaggregated synthetic peptides, 200 µM, PBS, 25 µM ThT, room temperature, no inducer; the R2R3 peptides of Fig. 4 also looked at by TEM; both purified
# [1] = molecular target: upstream N-terminal sequence 295DNIKHV300 (human)
# [2] = molecular target: wild-type peptide fragment R1R3 mimicking a 3R splice isoform (human)
# [3] = molecular target: R1R3 peptide fragment with a corresponding P301L mutation (R1R3-P270L) (human)
binder,measurement,setting,value
B1,binding,[1],no binding (tested: 200 µM)
B2,binding,[2],no binding (tested: 200 µM)
B3,binding,[3],"no binding (tested: 200 µM, within a week)"
